Consider ten molecules from PubChem BioAssay AID1625 (Sanford-Burnham Center for Chemical Genomics, 2009).

Some of the results follow. Some of these compounds have results that are not shown, active ones among them.

This test can be described thus: insulin promoter activators in MIN6 cells, imaging, high-content screening, mouse beta cells (AID 1625).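 Note: total cells summed across four imaged fields per well.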 The settings on record: MIN6 insulin promoter-GFP reporter, measured here: cytotoxicity, nuclei count, at 5 µM.
`CCN(CC)CC(C)C(C)OC(=O)C(O)(c1ccccc1)c1ccccc1` (stereo not given): the cell count turned out to be 1080 cells.
The same measure for `CC(C)N1C(=O)CC2(CCN(CCOC(=O)C(O)(c3ccccc3)c3ccccc3)CC2)C1=O`: 1590 cells; for `CCN1CCCC(OC(=O)C2(O)c3ccccc3C=Cc3ccccc32)C1` (stereo not given): 1350 cells.
For `C=CCN1CCN(CCOC(=O)C(O)(c2ccccc2)c2ccccc2)CC1`, the cell count amounted to 1430 cells.
In turn, `CN(C)C1CCCC1OC(=O)C(O)(c1ccccc1)c1ccccc1` (stereo not given) had a cell count of 1120 cells.
The molecule `Cc1ccccc1C(=O)NCC1(N2CCCCC2)CCCCC1` returned a cell count of 1470 cells.
The figure for `COc1cccc(C(=O)NCC2(N3CCCCC3)CCCCC2)c1` is 1350 cells; for `CN(C)c1cccc(C(=O)NCC2(N(C)C)CCCCC2)c1` it is 1120 cells.
The same measure for `COc1ccc(Br)c(C(=O)NCC2(N3CCCCC3)CCCCC2)c1`: 1300 cells; for `O=C(OC1CN2CCC1CC2)C(CO)(c1ccccc1)c1ccccc1` (stereo not given): 1130 cells.
